Reference: PubChem BioAssay AID504774 (Drosophila RNAi Screening Center, 2011)
In all, the deposit lists about 23,000 reagents; this is a random part of those that have a named target and a result. 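Values are quantile-normalised luminescence on an arbitrary scale; higher means more cells surviving MMS.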 The numbers tell different reagents against one gene apart. A plus sign joins genes that one reagent is predicted to hit. Further read-outs or replicates are left out here. No sequences are given here.

- Purpose: 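Fly genes whose loss alters survival after alkylation damage to DNA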 (primary screen)
- System: Drosophila Kc167 cells
- Knock-down reagent: long dsRNA against Drosophila genes, about 0.25 µg dsRNA per well
- Duration: about 6 days: 3 days knock-down, then 3 days with or without MMS
- Treatment: methyl methanesulphonate 0.004% (w/v) for 3 days after knock-down
- Detection: 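ATP-dependent luminescence as a measure of live cells in MMS-exposed wells, quantile normalised within each plate, with replicate values also given as a mean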
- Reading the numbers: mean viability with MMS and viability with MMS: higher = more surviving cells after MMS

For Stoml2 (Stomatin like 2), what was measured?
mean viability with MMS: 3.34e6; viability with MMS, replicate 1: 4.41e6

With CG42748 #1, what does the deposit list?
mean viability with MMS: 3.57e6; viability with MMS, replicate 1: 4.05e6

With CG42748 #2, what does the deposit list?
mean viability with MMS: 3.59e6; viability with MMS, replicate 1: 4.05e6

What did the screen give for CG42748 #3?
mean viability with MMS: 3.51e6; viability with MMS, replicate 1: 4.01e6

What did the screen give for ckn (caskin)?
mean viability with MMS: 3.17e6; viability with MMS, replicate 1: 3.67e6

What did the screen give for Aprt (Adenine phosphoribosyltransferase)?
mean viability with MMS: 3.50e6; viability with MMS, replicate 1: 3.95e6

With CG8079 #1, what does the deposit list?
mean viability with MMS: 3.60e6; viability with MMS, replicate 1: 4.03e6

With CG8079 #2, what was measured?
mean viability with MMS: 3.55e6; viability with MMS, replicate 1: 4.10e6

With Or30a (Odorant receptor 30a), how do the results read?
mean viability with MMS: 3.62e6; viability with MMS, replicate 1: 4.11e6

What did the screen give for CG15213?
mean viability with MMS: 3.66e6; viability with MMS, replicate 1: 4.27e6

How did the screen score CG7069?
mean viability with MMS: 3.52e6; viability with MMS, replicate 1: 4.09e6

What is on record for Hmt-1 (Heavy metal tolerance factor 1)?
mean viability with MMS: 3.45e6; viability with MMS, replicate 1: 3.87e6

What is on record for ABCB7 (ATP binding cassette subfamily B member 7)?
mean viability with MMS: 3.41e6; viability with MMS, replicate 1: 3.94e6

Which result is listed for CG14743?
mean viability with MMS: 3.49e6; viability with MMS, replicate 1: 3.91e6

What did the screen give for CG13377?
mean viability with MMS: 3.51e6; viability with MMS, replicate 1: 3.98e6

What is on record for Calr (Calreticulin)?
mean viability with MMS: 3.41e6; viability with MMS, replicate 1: 3.86e6

Which result is listed for Cpr78E (Cuticular protein 78E)?
mean viability with MMS: 3.72e6; viability with MMS, replicate 1: 4.13e6

For fzr (fizzy-related), what was measured?
mean viability with MMS: 3.54e6; viability with MMS, replicate 1: 3.99e6

For Obp19d (Odorant-binding protein 19d), how do the results read?
mean viability with MMS: 3.67e6; viability with MMS, replicate 1: 3.99e6

How did the screen score Or33c (Odorant receptor 33c)?
mean viability with MMS: 3.53e6; viability with MMS, replicate 1: 4.03e6

What is on record for CG6426?
mean viability with MMS: 3.56e6; viability with MMS, replicate 1: 4.02e6

With Prx4 (Peroxiredoxin 4), what does the deposit list?
mean viability with MMS: 3.47e6; viability with MMS, replicate 1: 3.95e6

With CG32845, how do the results read?
mean viability with MMS: 3.72e6; viability with MMS, replicate 1: 4.30e6

What did the screen give for Ada1-1 + Ada1-2 #1?
mean viability with MMS: 3.38e6; viability with MMS, replicate 1: 3.84e6

For Ada1-1 + Ada1-2 #2, how do the results read?
mean viability with MMS: 3.38e6; viability with MMS, replicate 1: 3.89e6

Which result is listed for Acp24A4 (Accessory gland protein 24A4)?
mean viability with MMS: 3.51e6; viability with MMS, replicate 1: 3.90e6

With Alp6 (Alkaline phosphatase 6), what does the deposit list?
mean viability with MMS: 3.56e6; viability with MMS, replicate 1: 4.08e6

Which result is listed for CG14450?
mean viability with MMS: 3.33e6; viability with MMS, replicate 1: 3.72e6

With CG4928, how do the results read?
mean viability with MMS: 3.58e6; viability with MMS, replicate 1: 4.17e6

Which result is listed for fray (frayed)?
mean viability with MMS: 3.27e6; viability with MMS, replicate 1: 3.68e6

With SA1 (Stromalin 1), what does the deposit list?
mean viability with MMS: 3.47e6; viability with MMS, replicate 1: 3.89e6

Which result is listed for CG17364 #1?
mean viability with MMS: 3.38e6; viability with MMS, replicate 1: 3.76e6

Which result is listed for CG17364 #2?
mean viability with MMS: 3.33e6; viability with MMS, replicate 1: 4.16e6

What is on record for CG17364 #3?
mean viability with MMS: 3.65e6; viability with MMS, replicate 1: 4.12e6

What did the screen give for CG12541 #1?
mean viability with MMS: 3.43e6; viability with MMS, replicate 1: 3.95e6

How did the screen score CG12541 #2?
mean viability with MMS: 3.74e6; viability with MMS, replicate 1: 4.05e6

With CheB38a (Chemosensory protein B 38a), what does the deposit list?
mean viability with MMS: 3.66e6; viability with MMS, replicate 1: 3.92e6

What is on record for AIMP2 (aaRS-interacting multifunctional protein 2)?
mean viability with MMS: 3.62e6; viability with MMS, replicate 1: 4.19e6

What is on record for CG30222 #1?
mean viability with MMS: 3.59e6; viability with MMS, replicate 1: 3.95e6

How did the screen score CG30222 #2?
mean viability with MMS: 3.68e6; viability with MMS, replicate 1: 4.11e6

With CG32081, what does the deposit list?
mean viability with MMS: 3.66e6; viability with MMS, replicate 1: 4.19e6

How did the screen score P5cr-2 (Pyrroline-5-carboxylate reductase-like 2)?
mean viability with MMS: 3.47e6; viability with MMS, replicate 1: 3.98e6

With CG2116, what does the deposit list?
mean viability with MMS: 3.67e6; viability with MMS, replicate 1: 4.24e6

What is on record for CG10428?
mean viability with MMS: 3.52e6; viability with MMS, replicate 1: 3.92e6

With erm (earmuff), what does the deposit list?
mean viability with MMS: 3.55e6; viability with MMS, replicate 1: 4.04e6

Single entries from the entries so far.
Value for CG12541 #2 under “viability with MMS, replicate 1”: 4.05e6
For “mean viability with MMS”, CG42748 #1 is entered as 3.57e6
Obp19d (Odorant-binding protein 19d), mean viability with MMS → 3.67e6
Entry of CG8079 #1 in “viability with MMS, replicate 1”: 4.03e6
